± gives the standard deviation of the averaged measurements. The entries are a selection whose mix differs from that of the whole data set.
Compound: Nc1ncnc2c1ncn2[C@@H]1O[C@H](COP(=O)(O)OP(=O)(O)NP(=O)(O)O)[C@@H](O)[C@H]1O [adenylyl imidodiphosphate]
Assay: NP40-soluble protein abundance relative to vehicle (solubility fold change) (ratio); higher = more soluble protein in presence of AMP-PNP
Method in brief: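 Data come from three independent experiments in which Dounce-homogenised Jurkat crude lysate was treated at eight concentrations from 0.1 to 10 mM. Treatment ran 10 min at room temperature and then 3 min at 37 °C, after which 0.8% NP40 and benzonase were added for 60 min at 4 °C before ultracentrifugation. The supernatant underwent TMT labelling and LC-MS/MS, and vsn-normalised intensities were expressed as fold change against the detergent-processed vehicle in each replicate.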

Amino acid sequences for entries named in this document (tags omitted). A change or cut given only in a name is not applied to a line headed by its entry.
UniProt Q9UQB8: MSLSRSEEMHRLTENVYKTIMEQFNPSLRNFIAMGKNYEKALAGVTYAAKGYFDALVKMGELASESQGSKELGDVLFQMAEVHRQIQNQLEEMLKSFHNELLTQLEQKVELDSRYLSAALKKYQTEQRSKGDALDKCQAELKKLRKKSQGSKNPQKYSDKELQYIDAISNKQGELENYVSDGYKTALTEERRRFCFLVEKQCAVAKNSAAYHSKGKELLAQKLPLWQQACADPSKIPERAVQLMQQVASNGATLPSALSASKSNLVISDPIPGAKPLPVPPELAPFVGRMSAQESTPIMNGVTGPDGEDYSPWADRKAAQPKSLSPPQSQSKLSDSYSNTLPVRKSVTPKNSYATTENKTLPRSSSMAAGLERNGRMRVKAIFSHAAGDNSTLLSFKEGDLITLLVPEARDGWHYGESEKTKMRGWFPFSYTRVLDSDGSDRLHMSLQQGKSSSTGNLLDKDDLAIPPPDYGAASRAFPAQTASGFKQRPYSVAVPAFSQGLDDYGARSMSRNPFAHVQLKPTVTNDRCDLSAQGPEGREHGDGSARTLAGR
UniProt P06865: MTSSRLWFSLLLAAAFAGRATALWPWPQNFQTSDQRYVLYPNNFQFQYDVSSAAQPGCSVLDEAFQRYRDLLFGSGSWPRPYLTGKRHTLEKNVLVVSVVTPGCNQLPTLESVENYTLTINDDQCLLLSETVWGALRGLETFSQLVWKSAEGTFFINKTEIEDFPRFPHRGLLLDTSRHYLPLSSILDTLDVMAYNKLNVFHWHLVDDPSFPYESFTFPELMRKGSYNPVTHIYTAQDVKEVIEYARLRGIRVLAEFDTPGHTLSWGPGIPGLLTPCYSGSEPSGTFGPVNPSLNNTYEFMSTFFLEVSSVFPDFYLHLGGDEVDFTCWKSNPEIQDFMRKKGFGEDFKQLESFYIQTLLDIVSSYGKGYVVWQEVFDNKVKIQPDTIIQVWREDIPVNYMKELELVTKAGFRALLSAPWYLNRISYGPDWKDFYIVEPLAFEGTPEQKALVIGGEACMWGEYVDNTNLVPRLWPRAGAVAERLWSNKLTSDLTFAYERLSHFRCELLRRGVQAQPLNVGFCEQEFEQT
UniProt Q9Y2K7: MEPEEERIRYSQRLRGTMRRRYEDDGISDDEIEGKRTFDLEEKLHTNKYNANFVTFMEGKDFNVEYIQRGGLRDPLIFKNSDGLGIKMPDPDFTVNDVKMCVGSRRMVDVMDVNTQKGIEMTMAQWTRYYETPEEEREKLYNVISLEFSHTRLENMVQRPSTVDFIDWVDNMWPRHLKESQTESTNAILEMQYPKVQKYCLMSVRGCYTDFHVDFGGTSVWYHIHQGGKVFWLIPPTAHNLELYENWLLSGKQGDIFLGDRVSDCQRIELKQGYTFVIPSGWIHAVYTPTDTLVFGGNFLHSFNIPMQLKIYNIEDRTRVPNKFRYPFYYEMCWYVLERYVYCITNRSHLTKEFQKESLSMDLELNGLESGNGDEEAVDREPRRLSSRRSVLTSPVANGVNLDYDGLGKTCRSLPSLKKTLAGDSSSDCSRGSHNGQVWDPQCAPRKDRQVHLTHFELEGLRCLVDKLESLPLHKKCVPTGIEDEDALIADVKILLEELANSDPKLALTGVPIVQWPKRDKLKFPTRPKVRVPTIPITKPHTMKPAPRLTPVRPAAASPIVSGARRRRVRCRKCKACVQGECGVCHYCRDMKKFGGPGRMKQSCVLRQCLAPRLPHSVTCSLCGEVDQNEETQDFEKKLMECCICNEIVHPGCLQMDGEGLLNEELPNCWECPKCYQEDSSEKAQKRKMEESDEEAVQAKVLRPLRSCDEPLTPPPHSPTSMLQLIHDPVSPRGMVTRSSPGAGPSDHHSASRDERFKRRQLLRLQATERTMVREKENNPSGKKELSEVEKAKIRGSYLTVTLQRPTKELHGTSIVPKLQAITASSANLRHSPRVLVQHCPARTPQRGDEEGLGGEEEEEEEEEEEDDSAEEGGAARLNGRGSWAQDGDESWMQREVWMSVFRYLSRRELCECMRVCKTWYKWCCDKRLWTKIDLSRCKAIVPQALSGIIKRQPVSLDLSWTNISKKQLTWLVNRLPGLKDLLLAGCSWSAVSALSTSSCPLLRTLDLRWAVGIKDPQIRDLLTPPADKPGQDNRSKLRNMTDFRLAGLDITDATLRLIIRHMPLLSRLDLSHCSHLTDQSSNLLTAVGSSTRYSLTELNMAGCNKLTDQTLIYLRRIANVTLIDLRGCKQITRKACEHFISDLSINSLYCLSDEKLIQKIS
UniProt P63241: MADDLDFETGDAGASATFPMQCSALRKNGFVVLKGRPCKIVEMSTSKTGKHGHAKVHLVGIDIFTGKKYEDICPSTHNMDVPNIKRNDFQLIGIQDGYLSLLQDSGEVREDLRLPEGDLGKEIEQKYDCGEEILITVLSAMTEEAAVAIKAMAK
UniProt Q2TAA2: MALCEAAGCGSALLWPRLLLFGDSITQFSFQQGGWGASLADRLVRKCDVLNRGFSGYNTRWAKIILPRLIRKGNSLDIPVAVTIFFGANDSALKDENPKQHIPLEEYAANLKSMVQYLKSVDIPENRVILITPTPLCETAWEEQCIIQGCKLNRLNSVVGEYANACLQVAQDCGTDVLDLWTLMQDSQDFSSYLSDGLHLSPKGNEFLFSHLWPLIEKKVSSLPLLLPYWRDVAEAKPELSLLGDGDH
UniProt Q8IXM2, whole entry, looked up: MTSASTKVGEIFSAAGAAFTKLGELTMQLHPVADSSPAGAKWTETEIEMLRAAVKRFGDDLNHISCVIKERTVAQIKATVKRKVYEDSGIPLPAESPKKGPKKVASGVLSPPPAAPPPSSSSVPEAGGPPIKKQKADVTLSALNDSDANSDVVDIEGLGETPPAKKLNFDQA
UniProt Q9NP58: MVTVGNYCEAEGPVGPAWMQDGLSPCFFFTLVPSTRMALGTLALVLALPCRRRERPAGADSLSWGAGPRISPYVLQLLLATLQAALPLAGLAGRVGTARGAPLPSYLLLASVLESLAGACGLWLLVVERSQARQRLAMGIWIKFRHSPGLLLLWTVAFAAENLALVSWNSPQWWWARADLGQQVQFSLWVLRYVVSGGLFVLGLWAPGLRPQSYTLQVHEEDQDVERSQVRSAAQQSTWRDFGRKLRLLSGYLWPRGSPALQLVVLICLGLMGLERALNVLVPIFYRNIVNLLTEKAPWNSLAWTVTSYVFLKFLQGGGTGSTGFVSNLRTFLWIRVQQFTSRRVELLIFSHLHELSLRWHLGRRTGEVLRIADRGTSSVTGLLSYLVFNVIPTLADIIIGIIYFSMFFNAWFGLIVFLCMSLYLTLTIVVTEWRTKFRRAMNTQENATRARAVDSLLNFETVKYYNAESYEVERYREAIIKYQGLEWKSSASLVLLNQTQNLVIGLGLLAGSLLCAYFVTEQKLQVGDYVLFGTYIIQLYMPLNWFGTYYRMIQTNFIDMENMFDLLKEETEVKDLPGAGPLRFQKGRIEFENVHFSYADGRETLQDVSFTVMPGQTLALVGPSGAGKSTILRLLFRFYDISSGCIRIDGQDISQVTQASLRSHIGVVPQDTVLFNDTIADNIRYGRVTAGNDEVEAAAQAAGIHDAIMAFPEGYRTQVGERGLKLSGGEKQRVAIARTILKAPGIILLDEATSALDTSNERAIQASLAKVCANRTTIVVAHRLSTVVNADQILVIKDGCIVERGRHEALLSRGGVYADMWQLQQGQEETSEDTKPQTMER
UniProt Q9HB58: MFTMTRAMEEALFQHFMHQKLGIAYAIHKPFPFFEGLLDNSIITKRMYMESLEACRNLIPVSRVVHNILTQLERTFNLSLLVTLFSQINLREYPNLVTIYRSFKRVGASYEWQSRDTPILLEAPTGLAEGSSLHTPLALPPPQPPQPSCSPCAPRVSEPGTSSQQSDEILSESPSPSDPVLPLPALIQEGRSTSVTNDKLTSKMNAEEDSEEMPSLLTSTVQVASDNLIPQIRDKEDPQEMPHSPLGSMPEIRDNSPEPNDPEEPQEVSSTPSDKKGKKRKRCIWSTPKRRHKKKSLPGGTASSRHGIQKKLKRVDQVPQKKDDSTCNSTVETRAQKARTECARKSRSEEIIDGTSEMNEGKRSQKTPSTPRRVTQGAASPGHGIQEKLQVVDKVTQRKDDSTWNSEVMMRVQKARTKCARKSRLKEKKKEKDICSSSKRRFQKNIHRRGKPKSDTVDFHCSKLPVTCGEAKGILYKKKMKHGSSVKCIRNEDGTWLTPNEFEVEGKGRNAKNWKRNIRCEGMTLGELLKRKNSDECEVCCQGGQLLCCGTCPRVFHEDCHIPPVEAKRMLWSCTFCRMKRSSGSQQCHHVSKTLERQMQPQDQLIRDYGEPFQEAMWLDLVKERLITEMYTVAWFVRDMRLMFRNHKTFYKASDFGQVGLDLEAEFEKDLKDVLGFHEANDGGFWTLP
UniProt Q9NTK5, whole entry, looked up: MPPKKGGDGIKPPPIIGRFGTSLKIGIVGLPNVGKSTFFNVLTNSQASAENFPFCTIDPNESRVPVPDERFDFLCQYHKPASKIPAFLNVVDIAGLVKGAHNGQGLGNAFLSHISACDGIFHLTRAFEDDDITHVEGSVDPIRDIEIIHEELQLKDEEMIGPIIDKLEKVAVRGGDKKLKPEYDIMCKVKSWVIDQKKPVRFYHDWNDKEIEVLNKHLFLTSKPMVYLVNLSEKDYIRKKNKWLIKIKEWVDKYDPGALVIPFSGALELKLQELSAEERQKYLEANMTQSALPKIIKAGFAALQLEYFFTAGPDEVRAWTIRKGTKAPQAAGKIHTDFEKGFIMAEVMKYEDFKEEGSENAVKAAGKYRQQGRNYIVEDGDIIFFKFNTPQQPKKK
UniProt Q9H792: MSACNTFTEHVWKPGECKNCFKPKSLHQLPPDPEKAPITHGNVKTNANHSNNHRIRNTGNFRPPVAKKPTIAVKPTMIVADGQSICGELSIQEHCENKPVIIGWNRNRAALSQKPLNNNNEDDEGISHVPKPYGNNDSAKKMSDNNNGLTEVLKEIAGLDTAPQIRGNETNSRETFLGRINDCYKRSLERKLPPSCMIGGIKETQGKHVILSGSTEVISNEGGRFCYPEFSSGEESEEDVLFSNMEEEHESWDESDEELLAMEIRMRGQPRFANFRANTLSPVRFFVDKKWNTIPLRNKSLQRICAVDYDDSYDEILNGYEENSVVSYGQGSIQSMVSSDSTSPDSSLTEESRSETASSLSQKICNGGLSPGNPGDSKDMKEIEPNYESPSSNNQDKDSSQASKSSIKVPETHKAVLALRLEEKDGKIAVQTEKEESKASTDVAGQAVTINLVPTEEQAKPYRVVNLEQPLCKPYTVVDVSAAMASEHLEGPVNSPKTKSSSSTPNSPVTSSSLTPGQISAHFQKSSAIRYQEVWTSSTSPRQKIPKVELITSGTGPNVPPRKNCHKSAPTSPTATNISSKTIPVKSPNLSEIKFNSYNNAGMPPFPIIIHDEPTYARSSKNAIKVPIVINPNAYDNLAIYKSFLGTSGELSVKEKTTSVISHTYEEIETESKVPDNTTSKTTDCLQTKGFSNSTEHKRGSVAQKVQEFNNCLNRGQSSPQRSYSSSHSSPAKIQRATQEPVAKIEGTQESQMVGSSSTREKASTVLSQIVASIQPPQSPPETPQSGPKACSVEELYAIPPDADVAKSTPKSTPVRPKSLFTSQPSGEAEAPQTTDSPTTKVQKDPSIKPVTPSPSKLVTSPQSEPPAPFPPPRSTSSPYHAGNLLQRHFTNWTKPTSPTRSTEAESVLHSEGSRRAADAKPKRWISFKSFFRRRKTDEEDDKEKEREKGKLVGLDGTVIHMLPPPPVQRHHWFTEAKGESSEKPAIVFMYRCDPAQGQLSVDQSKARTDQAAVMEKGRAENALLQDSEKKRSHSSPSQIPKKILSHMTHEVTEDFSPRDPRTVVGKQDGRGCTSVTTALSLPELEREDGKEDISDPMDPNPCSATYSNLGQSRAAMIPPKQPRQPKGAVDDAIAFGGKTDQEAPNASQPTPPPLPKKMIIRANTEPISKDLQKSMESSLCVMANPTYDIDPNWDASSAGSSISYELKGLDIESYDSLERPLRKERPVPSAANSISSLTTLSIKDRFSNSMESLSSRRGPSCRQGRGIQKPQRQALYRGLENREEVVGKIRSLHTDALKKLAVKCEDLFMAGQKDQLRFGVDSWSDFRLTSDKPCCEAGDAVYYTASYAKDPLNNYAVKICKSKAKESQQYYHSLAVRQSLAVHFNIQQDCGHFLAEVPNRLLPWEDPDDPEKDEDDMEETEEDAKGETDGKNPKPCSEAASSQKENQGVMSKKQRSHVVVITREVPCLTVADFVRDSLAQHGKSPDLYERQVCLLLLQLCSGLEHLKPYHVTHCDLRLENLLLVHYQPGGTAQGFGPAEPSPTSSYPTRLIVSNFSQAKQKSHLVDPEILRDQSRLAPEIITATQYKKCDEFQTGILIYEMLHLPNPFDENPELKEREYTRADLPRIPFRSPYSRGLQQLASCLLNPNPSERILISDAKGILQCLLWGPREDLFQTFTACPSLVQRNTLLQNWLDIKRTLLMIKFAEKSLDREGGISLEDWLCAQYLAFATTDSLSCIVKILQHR

Target: I3L4C2 and related entries (UniProt Q9UQB8)
- NP40-soluble protein abundance (concentration: 1mM): 1.015 ± 0.01
- NP40-soluble protein abundance (concentration: 2mM): 1.02 ± 0.026
- NP40-soluble protein abundance (concentration: 4mM): 0.981 ± 0.036
- NP40-soluble protein abundance (concentration: 6mM): 0.999 ± 0.026
- NP40-soluble protein abundance (concentration: 8mM): 0.9945 ± 0.0095
- NP40-soluble protein abundance (concentration: 10mM): 0.97 ± 0.016

Target: I3L2C7 and related entries (UniProt P57678)
- NP40-soluble protein abundance (concentration: 1mM): 1.01 ± 0.058
- NP40-soluble protein abundance (concentration: 2mM): 0.919 ± 0.046
- NP40-soluble protein abundance (concentration: 4mM): 0.957 ± 0.032
- NP40-soluble protein abundance (concentration: 6mM): 0.951 ± 0.034
- NP40-soluble protein abundance (concentration: 8mM): 0.983 ± 0.08
- NP40-soluble protein abundance (concentration: 10mM): 0.937 ± 0.068

Target: H3BP20 and related entries (UniProt P06865)
- NP40-soluble protein abundance (concentration: 1mM): 0.949 ± 0.072
- NP40-soluble protein abundance (concentration: 2mM): 0.911 ± 0.036
- NP40-soluble protein abundance (concentration: 4mM): 0.946 ± 0.035
- NP40-soluble protein abundance (concentration: 6mM): 1.01 ± 0.11
- NP40-soluble protein abundance (concentration: 8mM): 0.986 ± 0.088
- NP40-soluble protein abundance (concentration: 10mM): 0.966 ± 0.072

Target: I3L2M1 and related entries (UniProt Q8WYJ6)
- NP40-soluble protein abundance (concentration: 1mM): 1.04 ± 0.032
- NP40-soluble protein abundance (concentration: 2mM): 1.01 ± 0.022
- NP40-soluble protein abundance (concentration: 4mM): 1.04 ± 0.012
- NP40-soluble protein abundance (concentration: 6mM): 0.9903 ± 0.0048
- NP40-soluble protein abundance (concentration: 8mM): 0.9907 ± 0.001
- NP40-soluble protein abundance (concentration: 10mM): 0.994 ± 0.013

Target: I3VM54 and related entries (UniProt Q9Y2K7)
- NP40-soluble protein abundance (concentration: 1mM): 1.02 ± 0.016
- NP40-soluble protein abundance (concentration: 2mM): 1.08 ± 0.045
- NP40-soluble protein abundance (concentration: 4mM): 1.17 ± 0.037
- NP40-soluble protein abundance (concentration: 6mM): 1.26 ± 0.12
- NP40-soluble protein abundance (concentration: 8mM): 1.31 ± 0.11
- NP40-soluble protein abundance (concentration: 10mM): 1.43 ± 0.17

Target: I3L397 and related entries (UniProt P63241)
- NP40-soluble protein abundance (concentration: 1mM): 0.835 ± 0.04
- NP40-soluble protein abundance (concentration: 2mM): 0.825 ± 0.056
- NP40-soluble protein abundance (concentration: 4mM): 0.832 ± 0.069
- NP40-soluble protein abundance (concentration: 6mM): 0.835 ± 0.011
- NP40-soluble protein abundance (concentration: 8mM): 0.813 ± 0.07
- NP40-soluble protein abundance (concentration: 10mM): 0.72 ± 0.065

Target: I3L0L6 and related entries (UniProt Q9H6Y7)
- NP40-soluble protein abundance (concentration: 1mM): 1.04 ± 0.048
- NP40-soluble protein abundance (concentration: 2mM): 1.15 ± 0.14
- NP40-soluble protein abundance (concentration: 4mM): 1.04 ± 0.061
- NP40-soluble protein abundance (concentration: 6mM): 1.07 ± 0.088
- NP40-soluble protein abundance (concentration: 8mM): 1.09 ± 0.083
- NP40-soluble protein abundance (concentration: 10mM): 1.12 ± 0.12

Target: I3L3K7 and related entries (UniProt Q12968)
- NP40-soluble protein abundance (concentration: 1mM): 1.04 ± 0.021
- NP40-soluble protein abundance (concentration: 2mM): 1.02 ± 0.015
- NP40-soluble protein abundance (concentration: 4mM): 1.03 ± 0.024
- NP40-soluble protein abundance (concentration: 6mM): 0.996 ± 0.037
- NP40-soluble protein abundance (concentration: 8mM): 0.993 ± 0.037
- NP40-soluble protein abundance (concentration: 10mM): 1 ± 0.037

Target: H7C5G1 and related entries (UniProt Q2TAA2)
- NP40-soluble protein abundance (concentration: 1mM): 0.995 ± 0.037
- NP40-soluble protein abundance (concentration: 2mM): 0.975 ± 0.015
- NP40-soluble protein abundance (concentration: 4mM): 0.98 ± 0.028
- NP40-soluble protein abundance (concentration: 6mM): 0.972 ± 0.016
- NP40-soluble protein abundance (concentration: 8mM): 0.965 ± 0.022
- NP40-soluble protein abundance (concentration: 10mM): 0.981 ± 0.028

Target: J3QR07 and related entries (UniProt Q96MU7)
- NP40-soluble protein abundance (concentration: 1mM): 1.06 ± 0.058
- NP40-soluble protein abundance (concentration: 2mM): 1.12 ± 0.07
- NP40-soluble protein abundance (concentration: 4mM): 1.09 ± 0.045
- NP40-soluble protein abundance (concentration: 6mM): 1.12 ± 0.11
- NP40-soluble protein abundance (concentration: 8mM): 1.12 ± 0.072
- NP40-soluble protein abundance (concentration: 10mM): 1.16 ± 0.086

Target: H0YIS7 and related entries (UniProt Q8IXM2+H0YIS7)
- NP40-soluble protein abundance (concentration: 1mM): 0.967 ± 0.029
- NP40-soluble protein abundance (concentration: 2mM): 1 ± 0.025
- NP40-soluble protein abundance (concentration: 4mM): 0.944 ± 0.043
- NP40-soluble protein abundance (concentration: 6mM): 1 ± 0.017
- NP40-soluble protein abundance (concentration: 8mM): 0.9583 ± 0.0013
- NP40-soluble protein abundance (concentration: 10mM): 1 ± 0.073

Target: H7BXK9 and related entries (UniProt Q9NP58)
- NP40-soluble protein abundance (concentration: 1mM): 0.943 ± 0.026
- NP40-soluble protein abundance (concentration: 2mM): 0.946 ± 0.027
- NP40-soluble protein abundance (concentration: 4mM): 0.9576 ± 0.008
- NP40-soluble protein abundance (concentration: 6mM): 1.01 ± 0.012
- NP40-soluble protein abundance (concentration: 8mM): 0.9882 ± 0.0095
- NP40-soluble protein abundance (concentration: 10mM): 1.01 ± 0.019

Target: G5E9C0 and related entries (UniProt Q9HB58)
- NP40-soluble protein abundance (concentration: 1mM): 1.02 ± 0.051
- NP40-soluble protein abundance (concentration: 2mM): 1.04 ± 0.035
- NP40-soluble protein abundance (concentration: 4mM): 1.03 ± 0.022
- NP40-soluble protein abundance (concentration: 6mM): 1.08 ± 0.036
- NP40-soluble protein abundance (concentration: 8mM): 1.06 ± 0.038
- NP40-soluble protein abundance (concentration: 10mM): 1.12 ± 0.051

Target: J3KQ32 and related entries (UniProt Q9NTK5)
- NP40-soluble protein abundance (concentration: 1mM): 0.942 ± 0.039
- NP40-soluble protein abundance (concentration: 2mM): 0.9294 ± 0.0082
- NP40-soluble protein abundance (concentration: 4mM): 0.934 ± 0.038
- NP40-soluble protein abundance (concentration: 6mM): 0.992 ± 0.052
- NP40-soluble protein abundance (concentration: 8mM): 0.9996 ± 0.0064
- NP40-soluble protein abundance (concentration: 10mM): 0.992 ± 0.032

Target: H0YN99 and related entries (UniProt Q9H792)
- NP40-soluble protein abundance (concentration: 1mM): 0.9969 ± 0.0086
- NP40-soluble protein abundance (concentration: 2mM): 1.038 ± 0.0094
- NP40-soluble protein abundance (concentration: 4mM): 1.04 ± 0.085
- NP40-soluble protein abundance (concentration: 6mM): 1.04 ± 0.02
- NP40-soluble protein abundance (concentration: 8mM): 1.02 ± 0.026
- NP40-soluble protein abundance (concentration: 10mM): 1.03 ± 0.042
